{
  "source": "the supplement of paper PMC8256030",
  "note": "Where “and” joins values, the source holds several entries; their conditions need not be identical. Equal entries are not always repeated. Some of the results follow. Single values are uncertain here, since repeats match poorly.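 HEK293T cells were given each compound shortly before transfection with a reporter in which red mCherry is followed by the SARS-CoV-2 frameshift element and then GFP in the −1 frame, so GFP appears only after frameshifting.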",
  "data": [
    {"test_system": "HEK293T", "experiment": "percent viability (nuclei count) relative to control; higher = more viable cells", "conditions": "10 µM; 24 h", "values": [
      {"smiles": "CCCCCCCCCCCCCCCCCCOP(=O)([O-])OC1CC[N+](C)(C)CC1", "percent viability": "173%"},
      {"smiles": "Cc1c(O)c(=O)ccn1C", "note": "[deferiprone]", "percent viability": "252%"},
      {"smiles": "CC(C)c1nnc(NS(=O)(=O)c2ccc(N)cc2)s1", "note": "[glyprothiazol]", "percent viability": "106%"},
      {"smiles": "CCOc1ccc(Cc2nccc3cc(OCC)c(OCC)cc23)cc1OCC", "note": "[ethaverine]", "percent viability": "38.6%"},
      {"smiles": "O=C(O)C(=O)O.[NH-][C@@H]1CCCC[C@H]1[NH-].[Pt+2]", "note": "[Oxaliplatin]", "percent viability": "277%"},
      {"smiles": "CC(=O)O[C@H]1C[C@@H]2CC[C@@H]3[C@H](CC[C@@]4(C)[C@H]3C[C@H]([N+]3(C)CCCCC3)[C@@H]4OC(C)=O)[C@@]2(C)C[C@@H]1N1CCCCC1", "note": "[vecuronium bromide]", "percent viability": "168% and 243%"},
      {"smiles": "CC[N+](C)(C)Cc1ccccc1Br", "note": "[bretylium tosilate]", "percent viability": "220%"},
      {"smiles": "OCCOCCN1CCN(C(c2ccccc2)c2ccc(Cl)cc2)CC1", "note": "(stereo not given) [hydroxyzine]", "percent viability": "179% and 294%"},
      {"smiles": "CC1=C(/C=C/C(C)=C/C=C/C(C)=C/C=C/C=C(C)/C=C/C=C(C)/C=C/C2=C(C)C(=O)CCC2(C)C)C(C)(C)CCC1=O", "note": "[Canthaxanthin]", "percent viability": "322%"},
      {"smiles": "CN1C(C(=O)Nc2ccccn2)=C(O)c2ccccc2S1(=O)=O", "note": "[piroxicam]", "percent viability": "272%"},
      {"smiles": "O=C(O)CCC(=O)O", "note": "[Katasuccin]", "percent viability": "239%"},
      {"smiles": "NC(=O)COC(=O)c1ccccc1Nc1cccc(C(F)(F)F)c1", "note": "[colfenamate]", "percent viability": "265%"},
      {"smiles": "COc1ccc2c(O[C@@H]3C[C@H]4C(=O)N[C@]5(C(=O)NS(=O)(=O)C6(C)CC6)C[C@H]5/C=C\\CCCCC[C@H](NC(=O)c5ccn(C)n5)C(=O)N4C3)cc(OC(C)C)nc2c1C", "percent viability": "125%"},
      {"smiles": "CCCCC(=O)O[C@H]1CC[C@H]2[C@@H]3CCc4cc(O)ccc4[C@H]3CC[C@]12C", "note": "[estradiol valerate]", "percent viability": "206%"},
      {"smiles": "O=C(O)CCC(=O)Nc1ccc(S(=O)(=O)Nc2nccs2)cc1", "note": "[succinylsulfathiazole]", "percent viability": "368%"},
      {"smiles": "CCOC(=O)C1=C(C)NC(C)=C(C(=O)OCC)C1c1ccccc1/C=C/C(=O)OC(C)(C)C", "note": "[Lacidipine]", "percent viability": "249%"},
      {"smiles": "C=C1c2cccc(O)c2C(O)=C2C(=O)[C@]3(O)C(O)=C(C(N)=O)C(=O)[C@@H](N(C)C)[C@@H]3[C@@H](O)[C@H]12", "percent viability": "123%"},
      {"smiles": "C[C@]12CC[C@H]3C(=CCc4cc(O)ccc43)[C@@H]1CCC2=O", "note": "[Equilin]", "percent viability": "300%"},
      {"smiles": "CCN(CC)CCC(=O)N1c2ccccc2Sc2ccc(C(F)(F)F)cc21", "note": "[fluacizine]", "percent viability": "209%"},
      {"smiles": "CN1CCC[C@H]1c1cccnc1", "percent viability": "168%"},
      {"smiles": "CC(C)C[C@@H]1NC(=O)[C@H](CCCN)NC(=O)[C@H](C(C)C)NC(=O)[C@H](Cc2ccc(O)cc2)N[C@@H](CCC(=O)O)C(=O)N[C@@H](CC(N)=O)C(=O)[C@@H](Cc2ccccc2)NC(=O)[C@H](Cc2ccccc2)NC(=O)[C@@H]2CCCN2C(=O)[C@@H](Cc2ccccc2)NC1=O", "note": "[tyrothricin]", "percent viability": "58.7%"},
      {"smiles": "C[C@H](C(=O)O)c1ccc(-c2ccccc2)c(F)c1", "note": "[esflurbiprofen]", "percent viability": "365%"},
      {"smiles": "CC(=O)OCC1=C(C(=O)O)N2C(=O)[C@@H](NC(=O)[C@H](N)c3ccccc3)[C@H]2SC1", "note": "[cefaloglycin]", "percent viability": "160%"},
      {"smiles": "CC(COc1ccccc1)N(CCCl)Cc1ccccc1", "note": "(stereo not given) [phenoxybenzamine]", "percent viability": "259% and 321%"},
      {"smiles": "CN(C)CCOC(=O)COc1ccc(Cl)cc1", "note": "[meclofenoxate]", "percent viability": "103%"},
      {"smiles": "C[N+](C)(CCOc1ccccc1)Cc1cccs1", "note": "[thenium closilate]", "percent viability": "63.5%"},
      {"smiles": "Oc1c(Cl)cc(Cl)c2cccnc12", "percent viability": "271%"},
      {"smiles": "O=C(O)C(Cc1cc(I)c(O)c(I)c1)c1ccccc1", "note": "(stereo not given) [pheniodol]", "percent viability": "132%"},
      {"smiles": "OC(Cn1cncn1)(Cn1cncn1)c1ccc(F)cc1F", "note": "[fluconazole]", "percent viability": "324% and 215%"},
      {"smiles": "O=S(=O)(O)CCS", "note": "[mesna]", "percent viability": "108%"},
      {"smiles": "C#C[C@]1(OC(C)=O)CC[C@H]2[C@@H]3CCC4=C/C(=N/O)CC[C@@H]4[C@H]3CC[C@@]21CC", "percent viability": "220%"},
      {"smiles": "CC(C(=O)O)c1ccc2oc(-c3ccc(Cl)cc3)nc2c1", "note": "(stereo not given) [benoxaprofen]", "percent viability": "243%"},
      {"smiles": "COc1cc2ncnc(N3CCN(C(=O)OCC(C)(C)O)CC3)c2cc1OC", "note": "[hoquizil]", "percent viability": "133%"},
      {"smiles": "C[C@H]1C[C@@H]2[C@H]([C@@H](O)C[C@@]3(C)[C@H]2CC[C@]3(O)C(=O)CO)[C@@]2(C)C=CC(=O)C=C12", "note": "[methylprednisolone]", "percent viability": "239% and 192%"},
      {"smiles": "NC(=O)C[C@H](N)C(=O)O", "note": "[L-Asparagine]", "percent viability": "23.1%"},
      {"smiles": "CC(C(=O)O)c1ccc(-c2cn3ccccc3n2)cc1", "note": "(stereo not given) [miroprofen]", "percent viability": "122%"},
      {"smiles": "O=C1NCC2(CCN(CCc3ccccc3)CC2)O1", "percent viability": "205%"},
      {"smiles": "CCCCC(CC)COc1ccc(-c2nc(-c3ccc(OC)cc3)nc(-c3ccc(OCC(CC)CCCC)cc3O)n2)c(O)c1", "note": "(stereo not given) [bemotrizinol]", "percent viability": "164%"},
      {"smiles": "CCN(CCCc1ccccc1)CCCc1ccccc1", "percent viability": "34.1%"},
      {"smiles": "N=C(N)c1ccc(CNC(=O)[C@@H]2CCN2C(=O)[C@H](NCC(=O)O)C2CCCCC2)cc1", "note": "[melagatran]", "percent viability": "246%"}
    ]}
  ]
}
